# Laboratory results as given in PubChem BioAssay AID445 (National Center for Advancing Translational Sciences (NCATS), 2006).
# The other results are listed elsewhere or left out. Shown are side measurements of this screen, not its main read-out; they come without a call. The list favours compounds with an active or inconclusive main result. Potencies come from curve fits of mixed quality, noted in brackets.
# Assay: IkB Signaling
# Settings: ABC-DLBCL IkBa-CBG/CBR dual luciferase ratio (green luciferase fused to IkBa over red control in OCI-Ly3 lymphoma cells), 4 h
# In short: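 In this assay, an IκBα–CBG68 fusion accumulates when IKK-driven degradation is blocked; native CBR normalizes for cell number. OCI-Ly3 cells were treated 4 h with compound and doxycycline, then green and red light read after Chroma-Glo addition.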
# [1] = measured here: control luc red channel unless noted
# [2] = measured here: IkB-luc green channel
# [3] = measured here: control luc red channel
smiles,measurement,setting,value
COc1ccccc1-c1cc(C(=O)Nc2cc(C)nn2-c2ccccc2)no1,AC50,[1],"0.631 µM [falling, full curve]"
Cn1nc(-c2ccc(Cl)cc2)c2cc(C(=O)NCc3ccco3)sc21,AC50,[1],"6.31 µM [falling, partial curve]"
CCc1cnc2c(c1SCC(=O)c1ccc(Cl)cc1)c(=O)n(C)c(=O)n2C,AC50,[1],"39.8 µM [falling, single point]"
CCn1c(Sc2nc(C)nc3scc(-c4cccs4)c23)n[nH]c1=O,AC50,[1],"20 µM [falling, partial curve]"
O=C(NCCc1ccc(F)cc1)C(=O)NCC(c1ccco1)S(=O)(=O)c1cccs1 (stereo not given),AC50,[1],"6.31 µM [falling, single point]"
COc1ccc(S(=O)(=O)n2nc(C)c(S(=O)(=O)N3CCC(C)CC3)c2C)cc1OC,AC50,[1],"31.6 µM [falling, single point]"
Cc1nc2ccccc2c2oc(C(=O)NCCN3CCCCC3C)cc12 (stereo not given),AC50,[1],"39.8 µM [rising, single point] [measured here: IkB-luc green channel]"
CCc1nnc(NC(=O)CCC(=O)N2CCN(C3CCCCC3)CC2)s1,AC50,[1],"31.6 µM [rising, partial curve] [measured here: IkB-luc green channel]"
COc1cc(OC)cc(C(=O)N2CC(=O)Nc3ccc(Cl)cc3C2c2ccccc2)c1 (stereo not given),AC50,[1],"3.98 µM [falling, partial curve]"
CCOc1ccccc1NC(=O)C(CC)Sc1nc2ccncc2[nH]1 (stereo not given),AC50,[1],"20 µM [falling, single point]"
COc1ccc(NCc2cc3cc4c(cc3n(CC(=O)Nc3cc(C)ccc3C)c2=O)OCCO4)cc1,AC50,[2],"39.8 µM [rising, single point]"
same,AC50,[3],"20 µM [falling, partial curve]"
CC(C)c1ccc(NS(=O)(=O)c2ccc3nc(-c4ccccc4)[nH]c3c2)cc1,AC50,[1],"31.6 µM [falling, partial curve]"
CCOc1ccc(CN2CCc3nc(Nc4ccc5c(c4)OCCO5)ncc3C2)cc1,AC50,[1],"15.8 µM [falling, partial curve]"
COc1ccc(NC(=O)c2ccc3c(c2)sc2nc(-c4ccc(OC)cc4)cn23)cc1,AC50,[1],"15.8 µM [falling, partial curve]"
O=C(C1CCN(S(=O)(=O)c2cccc3nsnc23)CC1)N1CCc2ccccc2C1,AC50,[1],"15.8 µM [falling, partial curve]"
Cc1ccc(-c2cn(-c3cccc(Cl)c3)c(S(=O)(=O)CC(=O)Nc3ccccc3F)n2)cc1,AC50,[1],"0.398 µM [falling, partial curve]"
CCOc1ccc(C2CC(=O)N(c3cccc(F)c3)C3=C2C(=O)OC3)cc1 (stereo not given),AC50,[1],"25.1 µM [falling, partial curve]"
Cc1cccc(N2CCN(S(=O)(=O)c3csc(C(N)=O)c3)CC2)c1C,AC50,[1],"15.8 µM [falling, partial curve]"
Cc1ccc(N(Cc2cccs2)C(=O)c2ccccc2Cl)cc1,AC50,[1],"15.8 µM [falling, partial curve]"
CCCC(c1nnnn1CC1CCCO1)N1CCN(c2cc(Cl)ccc2C)CC1 (stereo not given),AC50,[1],"31.6 µM [falling, partial curve]"
C1=C(CCNc2ncnc3nc[nH]c23)CCCC1,AC50,[1],"25.1 µM [falling, partial curve]"
COc1ccc(C(=O)NCCn2ccc3ccccc32)cc1OC,AC50,[1],"10 µM [falling, partial curve]"
CCOC(=O)c1ccccc1NC(=O)CSc1nnnn1C1CCCCC1,AC50,[1],"15.8 µM [falling, partial curve]"
COc1ccc(COC(=O)c2n[nH]c3ccccc23)cc1F,AC50,[1],"31.6 µM [falling, single point]"
O=C(c1ccc(COc2ccc3c(c2)CCC3)o1)N1CCN(c2ccccc2)CC1,AC50,[1],"7.94 µM [falling, partial curve]"
CCc1ccc2[nH]c(=O)c(C(c3nnnn3CCOC)N3CCN(c4ccccc4F)CC3)cc2c1 (stereo not given),AC50,[1],"25.1 µM [falling, single point]"
c1ccc(-c2nnc(CSc3nnc(-c4cccs4)o3)o2)cc1,AC50,[1],"25.1 µM [falling, partial curve]"
CCOc1cc(Br)cc(C2NC(=O)c3c(sc4c3CCN(C)C4)N2)c1O (stereo not given),AC50,[1],"12.6 µM [falling, single point]"
COc1ccc(CNC(=O)CSc2ncc3c(n2)-c2ccc(Cl)cc2N(Cc2ccc(F)cc2)S3(=O)=O)cc1OC,AC50,[1],"31.6 µM [rising, partial curve] [measured here: IkB-luc green channel]"
CCOC(=O)c1ccc(NC(=O)CSc2nnc3c4ccccc4n(CC)c3n2)cc1,AC50,[1],"39.8 µM [rising, single point]"
O=C(CSc1c2c(nc3ccccc13)CCC2)Nc1ccc(F)cc1,AC50,[1],"12.6 µM [falling, partial curve]"
CC(C)(C)c1ccc(C(=O)NCC(c2ccco2)S(=O)(=O)c2ccc(F)cc2)cc1 (stereo not given),AC50,[1],"39.8 µM [falling, single point]"
CCc1ccc2ncc(C(=O)c3ccc(C)c(C)c3)c(N3CCC(C(N)=O)CC3)c2c1,AC50,[1],"1.58 µM [falling, full curve]"
Cc1cccc(N2CCN(Cc3nnc(-c4ccccc4C)o3)CC2C)c1 (stereo not given),AC50,[1],"31.6 µM [falling, partial curve]"
Cc1ccc(Cn2c(CNC(=O)CCc3ccccc3)nc3cccnc32)cc1,AC50,[1],"0.794 µM [rising, full curve, poor fit]"
COc1ccc(C2=Nc3ccc(F)cc3NC(c3cccc(C(F)(F)F)c3)=N2)cc1,AC50,[1],"25.1 µM [falling, partial curve]"
COC(=O)c1ccccc1NC(=O)c1cnc(Nc2ccc(OC)cc2)c2ccccc12,AC50,[1],"2.51 µM [falling, partial curve]"
O=C(O)CCC(=O)Nc1sc2c(c1C(=O)Nc1ccccc1)CCCCC2,AC50,[1],"15.8 µM [falling, partial curve]"
Cc1ccsc1CN(C(=O)c1ccc(OCC(C)C)cc1)C1CCS(=O)(=O)C1 (stereo not given),AC50,[1],"25.1 µM [falling, partial curve]"
CCc1ccc(NC(=O)c2ccc(F)c(S(=O)(=O)N3CCN(c4ccc(OC)cc4)CC3)c2)cc1,AC50,[1],"0.251 µM [falling, full curve, poor fit]"
CCOC(=O)c1cccc(NS(=O)(=O)c2cc(-c3cnc(C4CC4)o3)ccc2C)c1,AC50,[1],"39.8 µM [falling, single point]"
Cc1ccc(Sc2c(C)nn(C(=O)c3ccc(Cl)cc3)c2C)cc1,AC50,[1],"10 µM [falling, partial curve]"
CCC(c1nnnn1Cc1cccs1)N1CCN(c2nc3ccccc3s2)CC1 (stereo not given),AC50,[1],"25.1 µM [falling, partial curve]"
Cc1ccc(-n2c3nc(=O)[nH]c(=O)c-3cc3c(C)nn(-c4ccccc4)c32)cc1C,AC50,[1],"0.1 µM [falling, full curve]"
COc1ccccc1CNC(=O)CCCN1C(=O)CSc2c1c(C)nn2-c1ccccc1,AC50,[1],"12.6 µM [falling, partial curve]"
CC(=O)N1CCOc2cc(S(=O)(=O)NCc3ccc(F)cc3)c(C)cc21,AC50,[1],"0.631 µM [falling, full curve]"
O=C(NC1CCCc2ccccc21)c1ccc2c(c1)sc1nc(-c3ccccc3)cn12 (stereo not given),AC50,[1],"12.6 µM [falling, partial curve]"
O=C(Nc1ccc2c(c1)CCCN2C(=O)c1cccs1)c1ccccc1,AC50,[1],"39.8 µM [falling, single point]"
CC(CNC(=O)CCc1cn(Cc2ccccc2Cl)c2ccccc12)c1ccccc1 (stereo not given),AC50,[1],"25.1 µM [falling, partial curve]"
Cc1c(C(=O)NCc2cccc(Cl)c2)sc2nc[nH]c(=O)c12,AC50,[1],"1.26 µM [rising, full curve]"
COc1cccc(Oc2nc(C)nc3c2oc2ccccc23)c1,AC50,[1],"39.8 µM [falling, single point]"
COc1cc(S(=O)(=O)N2CCN(c3ccccc3F)CC2)ccc1Cl,AC50,[1],"10 µM [falling, partial curve]"
C/C(=C\C(=O)c1ccccc1)Nc1cccc(O)c1,AC50,[1],"10 µM [falling, partial curve]"
Oc1ccc(Cl)cc1/C=N/c1nc2ccccc2[nH]1,AC50,[1],"0.251 µM [falling, full curve]"
Cc1nc(N2CCCC2)c2c(C(=O)Nc3cccc(Cl)c3)c(C)oc2n1,AC50,[1],"3.16 µM [falling, single point]"
O=C(Nc1ccc(Br)cc1)C1CCCN(S(=O)(=O)c2ccc(Br)s2)C1 (stereo not given),AC50,[1],"20 µM [falling, partial curve]"
Fc1cccc2sc(Nc3nnc(-c4ccco4)o3)nc12,AC50,[2],"5.01 µM [rising, partial curve]"
same,AC50,[3],"0.00794 µM [falling, full curve]"
Cc1nnc(NC(=O)c2sc3ccccc3c2Cl)s1,AC50,[1],"39.8 µM [falling, single point]"
O=C(NCc1ccco1)c1cccn2c(=O)c3cc(Br)ccc3nc12,AC50,[1],"15.8 µM [falling, partial curve]"
Cc1ccc(NC(=O)CN2C(=O)C(c3ccc(F)cc3)=NC23CCCCC3)c(C)c1,AC50,[1],"10 µM [falling, single point]"
Cc1ccc(C)c(Cn2c(C(C)NC(=O)c3ccc(F)cc3)nc3ccccc32)c1 (stereo not given),AC50,[1],"39.8 µM [falling, single point]"
CCN(c1ccccc1)S(=O)(=O)c1cc(-c2onc(C)c2C)ccc1OC,AC50,[1],"10 µM [falling, partial curve]"
Cc1c2cnn(CC(=O)N3CCN(c4ccccc4)CC3)c(=O)c2c(C)n1Cc1ccc(F)cc1,AC50,[1],"15.8 µM [falling, partial curve]"

# Rewritten with bars between the fields: entries from further up.
smiles | measurement | setting | value
CC(C)(C)c1ccc(C(=O)NCC(c2ccco2)S(=O)(=O)c2ccc(F)cc2)cc1 (stereo not given) | AC50 | [1] | 39.8 µM [falling, single point]
CCc1ccc2ncc(C(=O)c3ccc(C)c(C)c3)c(N3CCC(C(N)=O)CC3)c2c1 | AC50 | [1] | 1.58 µM [falling, full curve]
Cc1cccc(N2CCN(Cc3nnc(-c4ccccc4C)o3)CC2C)c1 (stereo not given) | AC50 | [1] | 31.6 µM [falling, partial curve]
Cc1ccc(Cn2c(CNC(=O)CCc3ccccc3)nc3cccnc32)cc1 | AC50 | [1] | 0.794 µM [rising, full curve, poor fit]
COc1ccc(C2=Nc3ccc(F)cc3NC(c3cccc(C(F)(F)F)c3)=N2)cc1 | AC50 | [1] | 25.1 µM [falling, partial curve]
COC(=O)c1ccccc1NC(=O)c1cnc(Nc2ccc(OC)cc2)c2ccccc12 | AC50 | [1] | 2.51 µM [falling, partial curve]
O=C(O)CCC(=O)Nc1sc2c(c1C(=O)Nc1ccccc1)CCCCC2 | AC50 | [1] | 15.8 µM [falling, partial curve]
Cc1ccsc1CN(C(=O)c1ccc(OCC(C)C)cc1)C1CCS(=O)(=O)C1 (stereo not given) | AC50 | [1] | 25.1 µM [falling, partial curve]
CCc1ccc(NC(=O)c2ccc(F)c(S(=O)(=O)N3CCN(c4ccc(OC)cc4)CC3)c2)cc1 | AC50 | [1] | 0.251 µM [falling, full curve, poor fit]
CCOC(=O)c1cccc(NS(=O)(=O)c2cc(-c3cnc(C4CC4)o3)ccc2C)c1 | AC50 | [1] | 39.8 µM [falling, single point]
Cc1ccc(Sc2c(C)nn(C(=O)c3ccc(Cl)cc3)c2C)cc1 | AC50 | [1] | 10 µM [falling, partial curve]
CCC(c1nnnn1Cc1cccs1)N1CCN(c2nc3ccccc3s2)CC1 (stereo not given) | AC50 | [1] | 25.1 µM [falling, partial curve]
Cc1ccc(-n2c3nc(=O)[nH]c(=O)c-3cc3c(C)nn(-c4ccccc4)c32)cc1C | AC50 | [1] | 0.1 µM [falling, full curve]
COc1ccccc1CNC(=O)CCCN1C(=O)CSc2c1c(C)nn2-c1ccccc1 | AC50 | [1] | 12.6 µM [falling, partial curve]
